# Article PMC11078642
# Chains of the proteins cited; added tags and fusions are not shown.
# UniProt P35222: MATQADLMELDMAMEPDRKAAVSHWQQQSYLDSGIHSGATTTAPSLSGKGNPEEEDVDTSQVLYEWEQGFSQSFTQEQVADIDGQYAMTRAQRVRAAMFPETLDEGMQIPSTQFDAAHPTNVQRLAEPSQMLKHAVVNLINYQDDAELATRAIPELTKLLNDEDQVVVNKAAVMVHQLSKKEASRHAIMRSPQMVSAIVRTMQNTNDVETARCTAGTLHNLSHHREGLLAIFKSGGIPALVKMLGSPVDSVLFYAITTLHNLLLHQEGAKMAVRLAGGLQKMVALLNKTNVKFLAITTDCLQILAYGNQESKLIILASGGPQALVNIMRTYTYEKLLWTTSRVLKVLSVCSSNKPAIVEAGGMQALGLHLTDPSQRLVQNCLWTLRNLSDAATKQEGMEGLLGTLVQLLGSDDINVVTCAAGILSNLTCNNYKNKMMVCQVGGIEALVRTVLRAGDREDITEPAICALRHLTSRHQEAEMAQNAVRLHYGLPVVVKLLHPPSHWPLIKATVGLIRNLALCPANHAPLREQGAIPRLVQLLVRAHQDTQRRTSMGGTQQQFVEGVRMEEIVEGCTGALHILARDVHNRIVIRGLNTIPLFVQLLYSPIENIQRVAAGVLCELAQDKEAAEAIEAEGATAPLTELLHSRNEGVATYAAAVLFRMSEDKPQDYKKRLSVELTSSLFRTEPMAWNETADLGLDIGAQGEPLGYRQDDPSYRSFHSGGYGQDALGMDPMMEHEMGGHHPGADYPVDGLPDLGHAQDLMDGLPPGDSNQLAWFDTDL
# UniProt Q14244: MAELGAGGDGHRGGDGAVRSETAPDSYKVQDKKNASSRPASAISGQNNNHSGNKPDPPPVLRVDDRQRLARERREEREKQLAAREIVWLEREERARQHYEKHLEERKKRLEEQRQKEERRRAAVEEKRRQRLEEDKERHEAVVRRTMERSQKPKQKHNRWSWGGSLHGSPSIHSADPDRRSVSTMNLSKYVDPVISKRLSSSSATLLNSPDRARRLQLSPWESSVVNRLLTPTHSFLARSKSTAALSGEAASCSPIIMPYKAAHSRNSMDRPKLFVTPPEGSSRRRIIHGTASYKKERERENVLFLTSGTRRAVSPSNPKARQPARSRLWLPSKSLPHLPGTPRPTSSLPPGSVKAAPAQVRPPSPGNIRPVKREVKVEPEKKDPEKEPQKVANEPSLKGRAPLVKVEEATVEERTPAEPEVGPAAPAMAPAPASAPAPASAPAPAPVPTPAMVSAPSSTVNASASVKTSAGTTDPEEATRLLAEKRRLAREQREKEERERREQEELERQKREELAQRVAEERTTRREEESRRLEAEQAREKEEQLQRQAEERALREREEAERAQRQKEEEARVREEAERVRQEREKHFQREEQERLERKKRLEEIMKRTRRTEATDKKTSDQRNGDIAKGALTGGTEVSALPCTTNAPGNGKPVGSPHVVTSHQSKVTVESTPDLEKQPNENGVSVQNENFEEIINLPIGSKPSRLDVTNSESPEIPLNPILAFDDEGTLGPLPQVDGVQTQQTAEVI
# These are yes or no findings as the source states them, for the method shown. Binding seen in cells or lysates may run through a third protein. Some results given as binding are weak or reduced against the parent protein; the word gives no strength.
# Legend:
# [1] = molecular target: β-catenin (human (endogenous in A2780)) (UniProt P35222); test: co-IP; endogenous proteins; 1 mg total protein of A2780-DDP (cisplatin-resistant) and parental A2780 cells in 1 mL IP buffer with protease inhibitors; 10 μg antibody (anti-MAP7, anti-β-catenin or anti-CBY1) or control IgG; Protein A/G agarose beads, room temperature 2 h; Western blot
# [2] = molecular target: CBY1 (Chibby family member 1) (human (endogenous in A2780)) (UniProt Q9Y3M2); test: as above
binding [1],binding [2],Substance
binds weakly,binds,Microtubule-associated protein 7 (MAP7) (from UniProt Q14244 1-749)
,binds,β-catenin (from UniProt P35222 1-781)
